# Reference: publication PMC9705548
# Sequences of proteins named here, by UniProt entry; tags and fusion partners are left off. A change or cut given only in a name is not applied to a line headed by its entry.
# UniProt P05455: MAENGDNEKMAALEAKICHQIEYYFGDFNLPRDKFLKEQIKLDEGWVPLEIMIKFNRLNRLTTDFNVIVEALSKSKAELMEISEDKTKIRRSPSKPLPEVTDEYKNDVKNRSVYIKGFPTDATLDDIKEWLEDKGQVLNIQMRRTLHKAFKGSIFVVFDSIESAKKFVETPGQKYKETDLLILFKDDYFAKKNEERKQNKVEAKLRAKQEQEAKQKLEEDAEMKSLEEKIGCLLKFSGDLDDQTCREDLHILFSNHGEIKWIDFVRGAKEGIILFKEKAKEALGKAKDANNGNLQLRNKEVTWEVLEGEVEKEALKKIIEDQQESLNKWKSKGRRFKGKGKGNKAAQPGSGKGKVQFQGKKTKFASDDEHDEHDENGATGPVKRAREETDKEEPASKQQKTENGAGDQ
# Key:
# [1] = target: T1, Mlp1 (Tetrahymena thermophila) (UniProt Q23RK6); assay: competition with a labelled probe; conditions: EMSA: 20 mM Tris-HCl pH 7.4, 100 mM KCl, 1 mM EDTA, 5 mM beta-mercaptoethanol, 10% glycerol, ~0.1 nM RNA refolded from 95 C, 30 min at 30 C, 8% native PAGE at 4 C, recombinant protein, residues 1-340, protein details: N-terminal 6xHis (pET28a)
# T1 sequence (looked up): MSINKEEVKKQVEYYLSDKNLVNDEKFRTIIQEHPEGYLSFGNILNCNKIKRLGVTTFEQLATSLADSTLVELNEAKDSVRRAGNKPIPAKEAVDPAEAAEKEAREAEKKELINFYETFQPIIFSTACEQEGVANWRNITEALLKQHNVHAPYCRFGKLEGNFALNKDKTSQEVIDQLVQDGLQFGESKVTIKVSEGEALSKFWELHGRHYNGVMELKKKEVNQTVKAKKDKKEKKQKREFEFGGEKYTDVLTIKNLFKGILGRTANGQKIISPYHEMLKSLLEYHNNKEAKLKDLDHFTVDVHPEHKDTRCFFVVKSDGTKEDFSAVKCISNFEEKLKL
# hLa (Homo sapiens) [2] = target: hLa (Homo sapiens) (UniProt P05455); assay: competition with a labelled probe; conditions: EMSA: 20 mM Tris-HCl pH 7.4, 100 mM KCl, 1 mM EDTA, 5 mM beta-mercaptoethanol, 10% glycerol, ~0.1 nM RNA refolded from 95 C, 30 min at 30 C, 8% native PAGE at 4 C, recombinant protein, protein details: 6xHis (encoded in reverse primer, pET28a)
# hLa (Homo sapiens) [3] = target: hLa (Homo sapiens) (UniProt P05455); assay: EMSA; conditions: EMSA: 20 mM Tris-HCl pH 7.4, 100 mM KCl, 1 mM EDTA, 5 mM beta-mercaptoethanol, 10% glycerol; ~0.1 nM RNA refolded from 95 C; 30 min at 30 C; 8% native PAGE at 4 C; recombinant protein; protein details: 6xHis (encoded in reverse primer, pET28a); label: 5'-32P (unlabeled as competitor)
# [4] = target: T2, Mlp1 1-250 (Tetrahymena thermophila) (UniProt Q23RK6); assay: EMSA; conditions: EMSA: 20 mM Tris-HCl pH 7.4, 100 mM KCl, 1 mM EDTA, 5 mM beta-mercaptoethanol, 10% glycerol; ~0.1 nM RNA refolded from 95 C; 30 min at 30 C; 8% native PAGE at 4 C; recombinant protein; residues 1-250; protein details: N-terminal 6xHis (pET28a); label: 32P-UTP body label (unlabeled as competitor); letters put together from the description
# T2 sequence (looked up): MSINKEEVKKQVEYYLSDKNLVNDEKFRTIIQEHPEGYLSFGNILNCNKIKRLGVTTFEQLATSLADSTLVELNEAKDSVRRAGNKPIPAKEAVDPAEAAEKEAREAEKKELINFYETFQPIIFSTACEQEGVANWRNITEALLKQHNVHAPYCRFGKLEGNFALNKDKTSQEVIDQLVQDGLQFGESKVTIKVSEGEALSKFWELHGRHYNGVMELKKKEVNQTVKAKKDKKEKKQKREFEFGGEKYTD
# [5] = target: T1, Mlp1 (Tetrahymena thermophila); assay: EMSA; conditions: EMSA: 20 mM Tris-HCl pH 7.4, 100 mM KCl, 1 mM EDTA, 5 mM beta-mercaptoethanol, 10% glycerol; ~0.1 nM RNA refolded from 95 C; 30 min at 30 C; 8% native PAGE at 4 C; recombinant protein; residues 1-340; protein details: N-terminal 6xHis (pET28a); label: 32P-UTP body label; letters put together from the description
# [6] = label: 5'-32P (unlabeled as competitor)
sequence,measurement,setting,value
CUGCUGCCCC [4C],binding result,[1],binds more weakly
CUGCUGUCUU [U-3C],binding result,hLa (Homo sapiens) [2],binds more weakly
CUGCUGUUCU [U-2C],binding result,hLa (Homo sapiens) [2],binds more weakly
CUGCUGUUUC [U-1C],binding result,hLa (Homo sapiens) [2],binds more weakly
CUGCUGUUUU [4U (CUGCUGUUUU-3'OH)],binding result,hLa (Homo sapiens) [3],binds
same,binding result,hLa (Homo sapiens) [2]; [6],binds
same,binding result,[1]; [6],binds
GAUGAAGUGGCCGAGCGGUCUAAGGCGGUAGAUUAAGGCUCUAUUCCGAAAGGGCGCGAGUUCGAAUCUCGCCUUCAUCA [mature tRNA LeuAAG],binding result,[4],binds more weakly
same,binding result,"hLa (Homo sapiens) [2]; label: 32P-UTP body label (unlabeled as competitor), letters put together from the description",binds more weakly
GGUUCCAUAGUAUAGUGGUUAGUACUGGGGACUUUAAAUCCCUUGACCUGGGUUCGAAUCCCAGUGGGACCU [mature tRNA GlnUUA],binding result,[5],binds more weakly
UUUUUUUUUU [U10-3'-P],binding result,hLa (Homo sapiens) [2]; 3'-phosphate,binds more weakly
same,binding result,[1]; 3'-phosphate,binds more weakly
UUUUUUUUUU [U10-3'OH],binding result,hLa (Homo sapiens) [2]; [6],binds
same,binding result,[1]; [6],binds

# For some assays here: Weaker means in comparison with the reference protein, sequence or condition of that experiment. For some assays here: Where a protein sequence is shown, tags need not be part of it. For some assays here: For at least one entry, the source does not settle the construct or the ends of the probe. For some assays here: At least one verdict rests on a figure or table, not on a statement of the authors.
